Assay in all cases: glycan array binding signal (z-score within array); higher = stronger binding
Settings in all cases: glycan notation: IUPAC condensed, linker removed

The target of one assay is Neu5Ac(a2-8)Neu5Ac. In a few lines:
(§1)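 Glycan array data came from 3228 arrays in the Consortium for Functional Glycomics database, and only arrays with an available protein sequence were kept. Glycan names were put into IUPAC-condensed notation, and columns mapping to the same glycan were averaged. The binding signal is a within-array Z-score, averaged across arrays of one protein sequence run at different concentrations or buffers and across linkers. A negative Z-score can be read as non-binding.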

The target in assay [1] is Neu5Ac(a2-8)Neu5Ac(a2-3)Gal(b1-4)Glc. The essentials: as §1
Assay [2] has as its target Neu5Ac(a2-8)Neu5Ac(a2-3)[GalNAc(b1-4)]Gal(b1-4)Glc. The essentials: as §1
Assay [3] concerns the target Neu5Ac(a2-8)Neu5Ac(a2-8)Neu5Ac. In a few lines:
as §1

The target of assay [4] is Neu5Ac(a2-8)Neu5Ac(a2-8)Neu5Ac(a2-3)Gal(b1-4)Glc. The essentials: as §1
The target in assay [5] is Neu5Ac(a2-8)Neu5Ac(a2-8)Neu5Ac(a2-3)[GalNAc(b1-4)]Gal(b1-4)Glc. The essentials: as §1
Assay [6] has as its target Neu5Ac(a2-8)Neu5Ac(a2-8)Neu5Ac(a2-8)Neu5Ac(a2-3)[GalNAc(b1-4)]Gal(b1-4)Glc. The essentials: as §1
Assay [7] has as its target Neu5Ac(b2-6)Gal(b1-4)GlcNAc. The essentials:
as §1

A further assay addresses Neu5Ac(b2-6)GalNAc. In a few lines: as §1
Assay [8] concerns the target Neu5Ac9Ac(a2-3)Gal(b1-3)GlcNAc. The essentials:
as §1

Assay [9] deals with Neu5Ac9Ac(a2-3)Gal(b1-4)GlcNAc. The essentials:
as §1

Assay [10] addresses Neu5Ac9Ac(a2-6)Gal(b1-4)GlcNAc. In a few lines: as §1
For assay [11], the target named is Neu5Gc(a2-3)Gal(b1-3)GlcNAc. The essentials: as §1
Assay [12] has as its target Neu5Gc(a2-3)Gal(b1-3)[Fuc(a1-4)]GlcNAc. In a few lines:
as §1

The next assay concerns the target Neu5Gc(a2-3)Gal(b1-4)Glc. The essentials: as §1
In assay [13] the target is Neu5Gc(a2-3)Gal(b1-4)GlcNAc. In a few lines:
as §1

Assay [14] concerns the target Neu5Gc(a2-3)Gal(b1-4)[Fuc(a1-3)]GlcNAc. In a few lines:
as §1

Assay [15] has as its target Neu5Gc(a2-6)Gal(b1-4)GlcNAc. In a few lines: as §1
A further assay has as its target Neu5Gc(a2-6)GalNAc. In a few lines:
as §1

The target in assay [16] is Neu5Gc(b2-6)Gal(b1-4)GlcNAc. In a few lines: as §1

This is one part of the list.

1 molecule from the supplement of paper PMC8728848 can be followed below.

B1: CLEC9a (Mus musculus), Q8BRU4 (protein)
chain: MHAEEIYTSLQWDIPTSEASQKCQSPSKCSGAWCVVTMISCVVCMGLLATSIFLGIKFFQVSSLVLEQQERLIQQDTALVNLTQWQRKYTLEYCQALLQRSLHSGSDCSPCPHNWIQNGKSCYYVFERWEMWNISKKSCLKEGASLFQIDSKEEMEFISSIGKLKGGNKYWVGVFQDGISGSWFWEDGSSPLSDLLPAERQRSAGQICGYLKDSTLISDKCDSWKYFICEKKAFGSCI
For B1, the “glycan array binding signal (z-score)” value was 0.329 with Neu5Ac(a2-8)Neu5Ac; 0.726 in [1]; 0.872 in assay [2]; -0.501 in assay [3]; -0.292 in [4]; -0.394 in assay [5]. Besides, the “glycan array binding signal (z-score)” value in assay [6] is 2.43; in [7] it was -0.275; with Neu5Ac(b2-6)GalNAc, 0.088; in assay [8], 0.98; in [9] it was -1.32; in assay [10], -1.66. Further, the “glycan array binding signal (z-score)” value was -0.171 in assay [11]; -0.987 in assay [12]; -1.77 with Neu5Gc(a2-3)Gal(b1-4)Glc; 0.756 in assay [13]; -1.16 in [14]; -0.453 in assay [15]. Moreover, the “glycan array binding signal (z-score)” value with Neu5Gc(a2-6)GalNAc is -0.83; in assay [16], 0.047.
